Assay results taken from paper PMC5931457.
No constants are given. Whether binding was seen depends on the method and setting. For part of these data: Binding seen in cells or lysates may run through a third protein. Some results given as binding are weak or reduced against the parent protein; the word gives no strength. For part of these data: Where a sequence is shown, tags or fusion partners need not be part of it. One block for each binder: values may come before it.

Legend:
[1] = target: T1, A20 fused to the GAL4 DNA-binding domain (human) (UniProt P21580); experiment: two-hybrid; mammalian two-hybrid (Matchmaker, Clontech) in RKO cells; GAL4 DNA-binding domain and VP16 activation domain fusions; secreted alkaline phosphatase reporter
T1 sequence: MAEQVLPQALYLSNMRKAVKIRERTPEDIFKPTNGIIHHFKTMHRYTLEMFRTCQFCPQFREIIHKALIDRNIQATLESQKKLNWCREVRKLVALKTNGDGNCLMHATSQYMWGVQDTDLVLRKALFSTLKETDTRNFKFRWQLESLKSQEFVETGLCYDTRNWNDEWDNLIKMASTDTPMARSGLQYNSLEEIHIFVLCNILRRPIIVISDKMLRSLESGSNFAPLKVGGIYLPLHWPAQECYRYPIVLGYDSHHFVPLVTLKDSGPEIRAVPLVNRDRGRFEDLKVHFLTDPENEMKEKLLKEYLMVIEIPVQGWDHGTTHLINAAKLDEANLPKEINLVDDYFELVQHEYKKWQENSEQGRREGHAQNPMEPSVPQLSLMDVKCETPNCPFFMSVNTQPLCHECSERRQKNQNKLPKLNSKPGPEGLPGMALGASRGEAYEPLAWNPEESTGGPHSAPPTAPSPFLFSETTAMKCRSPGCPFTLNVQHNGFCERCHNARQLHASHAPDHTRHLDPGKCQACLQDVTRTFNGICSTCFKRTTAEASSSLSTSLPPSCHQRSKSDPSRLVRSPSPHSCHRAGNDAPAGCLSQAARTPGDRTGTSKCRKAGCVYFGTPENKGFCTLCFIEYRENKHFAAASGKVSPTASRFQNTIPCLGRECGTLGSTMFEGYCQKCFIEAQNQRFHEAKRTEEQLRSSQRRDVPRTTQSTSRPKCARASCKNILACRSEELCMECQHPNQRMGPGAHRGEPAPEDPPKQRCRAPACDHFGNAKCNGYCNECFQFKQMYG

[2] = target: T2, endogenous A20 (human (endogenous in RKO)) (UniProt P21580); experiment: co-IP; endogenous proteins; wild-type RKO cells stimulated with wnt3a for 4 hours; A20 immunoprecipitated with antibody B5 or 4H16, blot for RIPK4; lysis in 1% Triton X-100, 150mM NaCl, 10% Glycerol
T2 sequence: T1 sequence

[3] = target: T2, endogenous A20 (human (endogenous in RKO)); experiment: condition: only cells stimulated with TNF (10ng/mL, 4 hours) and not with wnt3a; co-IP; endogenous proteins; wild-type RKO cells stimulated with TNF for 4 hours; A20 immunoprecipitated with antibody B5 or 4H16, blot for RIPK4; lysis in 1% Triton X-100, 150mM NaCl, 10% Glycerol

binding [1]: binds
B1: RIPK4 fused to the VP16-transactivation domain (protein, UniProt P57078 1-832)
chain: MEGDGGTPWALALLRTFDAGEFTGWEKVGSGGFGQVYKVRHVHWKTWLAIKCSPSLHVDDRERMELLEEAKKMEMAKFRYILPVYGICREPVGLVMEYMETGSLEKLLASEPLPWDLRFRIIHETAVGMNFLHCMAPPLLHLDLKPANILLDAHYHVKISDFGLAKCNGLSHSHDLSMDGLFGTIAYLPPERIREKSRLFDTKHDVYSFAIVIWGVLTQKKPFADEKNILHIMVKVVKGHRPELPPVCRARPRACSHLIRLMQRCWQGDPRVRPTFQGNGLNGELIRQVLAALLPVTGRWRSPGEGFRLESEVIIRVTCPLSSPQEITSETEDLCEKPDDEVKETAHDLDVKSPPEPRSEVVPARLKRASAPTFDNDYSLSELLSQLDSGVSQAVEGPEELSRSSSESKLPSSGSGKRLSGVSSVDSAFSSRGSLSLSFEREPSTSDLGTTDVQKKKLVDAIVSGDTSKLMKILQPQDVDLALDSGASLLHLAVEAGQEECAKWLLLNNANPNLSNRRGSTPLHMAVERRVRGVVELLLARKISVNAKDEDQWTALHFAAQNGDESSTRLLLEKNASVNEVDFEGRTPMHVACQHGQENIVRILLRRGVDVSLQGKDAWLPLHYAAWQGHLPIVKLLAKQPGVSVNAQTLDGRTPLHLAAQRGHYRVARILIDLCSDVNVCSLLAQTPLHVAAETGHTSTARLLLHRGAGKEAMTSDGYTALHLAARNGHLATVKLLVEEKADVLARGPLNQTALHLAAAHGHSEVVEELVSADVIDLFDEQGLSALHLAAQGRHAQTVETLLRHGAHINLQSLKFQGGHGPAATLLRRSKT

binding [2]: binds | binding [3]: no binding
B2: endogenous RIPK4 (protein, UniProt P57078 1-832)
chain: B1 chain
